Laboratory results from the M2OR odorant receptor database.
Only a part is listed here, and it is no random draw. The calls were merged from several studies; some rest on single wells. The list shows a part of the results.

Columns and labels:
Settings in all cases: stereoisomer not certain
OR6M1 (Homo sapiens) = target: T1, OR6M1 (Homo sapiens) (UniProt Q8NGM8)
T1 sequence (whole entry): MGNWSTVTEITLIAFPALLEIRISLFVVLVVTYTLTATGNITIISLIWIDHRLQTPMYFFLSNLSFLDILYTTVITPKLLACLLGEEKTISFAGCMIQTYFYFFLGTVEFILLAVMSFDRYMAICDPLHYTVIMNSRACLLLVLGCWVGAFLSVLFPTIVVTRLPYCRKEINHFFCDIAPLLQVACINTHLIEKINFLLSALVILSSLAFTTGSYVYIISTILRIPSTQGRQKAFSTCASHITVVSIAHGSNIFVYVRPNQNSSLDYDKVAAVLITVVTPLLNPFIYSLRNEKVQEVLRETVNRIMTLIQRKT
How it was run: (§1)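 Whether a receptor–molecule pair is responsive (active) rests on the original authors' judgment that its measured signal was statistically different from baseline. Pairs without that judgment are non-responsive (inactive). Sources used varied assay methods, commonly transient luciferase assays in mammalian cell lines.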

OR6N1 = test system: T2, OR6N1
T2 sequence (whole entry): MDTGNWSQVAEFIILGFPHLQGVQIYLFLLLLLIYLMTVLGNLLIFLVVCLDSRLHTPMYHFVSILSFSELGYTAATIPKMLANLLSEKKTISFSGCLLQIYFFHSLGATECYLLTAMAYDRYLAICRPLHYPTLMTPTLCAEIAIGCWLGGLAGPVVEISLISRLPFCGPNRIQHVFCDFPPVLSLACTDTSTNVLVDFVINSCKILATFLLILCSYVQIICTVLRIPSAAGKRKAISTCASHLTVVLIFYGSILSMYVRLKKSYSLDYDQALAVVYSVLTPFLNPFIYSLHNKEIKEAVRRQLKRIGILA
How it was run: as §1

OR6N2 (Homo sapiens) = target: T3, OR6N2 (Homo sapiens) (UniProt Q8NGY6)
T3 sequence (whole entry): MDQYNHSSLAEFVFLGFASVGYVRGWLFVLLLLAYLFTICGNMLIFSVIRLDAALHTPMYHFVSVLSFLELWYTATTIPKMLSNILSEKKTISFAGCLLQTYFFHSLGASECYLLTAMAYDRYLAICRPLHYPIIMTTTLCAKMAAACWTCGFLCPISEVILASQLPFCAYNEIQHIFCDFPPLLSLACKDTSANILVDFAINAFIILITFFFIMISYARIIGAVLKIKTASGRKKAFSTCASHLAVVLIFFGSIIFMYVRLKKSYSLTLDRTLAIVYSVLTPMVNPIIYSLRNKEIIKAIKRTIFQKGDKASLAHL
How it was run: as §1

OR6P1 (Homo sapiens) = target: T4, OR6P1 (Homo sapiens) (UniProt Q8NGX9)
T4 sequence (whole entry): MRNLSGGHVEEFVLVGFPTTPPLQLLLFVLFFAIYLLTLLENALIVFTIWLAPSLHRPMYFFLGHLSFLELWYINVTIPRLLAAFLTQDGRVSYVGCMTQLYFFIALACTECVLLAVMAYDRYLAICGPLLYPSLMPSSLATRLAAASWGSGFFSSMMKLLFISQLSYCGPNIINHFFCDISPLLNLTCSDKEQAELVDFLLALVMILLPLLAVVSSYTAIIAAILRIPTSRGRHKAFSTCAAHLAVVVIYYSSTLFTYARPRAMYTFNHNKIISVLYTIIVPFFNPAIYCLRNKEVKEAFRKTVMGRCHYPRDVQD
How it was run: as §1

OR6Q1 (Homo sapiens) = target: T5, OR6Q1 (Homo sapiens) (UniProt Q8NGQ2)
T5 sequence (whole entry): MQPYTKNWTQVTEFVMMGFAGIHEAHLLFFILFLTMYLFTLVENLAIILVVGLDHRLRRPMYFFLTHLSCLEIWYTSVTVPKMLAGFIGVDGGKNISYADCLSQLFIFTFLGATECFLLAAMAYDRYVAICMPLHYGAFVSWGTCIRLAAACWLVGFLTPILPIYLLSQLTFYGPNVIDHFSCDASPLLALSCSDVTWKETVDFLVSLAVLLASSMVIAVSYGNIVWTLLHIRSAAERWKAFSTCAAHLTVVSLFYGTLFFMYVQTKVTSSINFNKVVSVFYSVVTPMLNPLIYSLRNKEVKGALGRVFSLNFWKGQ
How it was run: as §1

OR6S1 = test system: T6, OR6S1
T6 sequence (whole entry): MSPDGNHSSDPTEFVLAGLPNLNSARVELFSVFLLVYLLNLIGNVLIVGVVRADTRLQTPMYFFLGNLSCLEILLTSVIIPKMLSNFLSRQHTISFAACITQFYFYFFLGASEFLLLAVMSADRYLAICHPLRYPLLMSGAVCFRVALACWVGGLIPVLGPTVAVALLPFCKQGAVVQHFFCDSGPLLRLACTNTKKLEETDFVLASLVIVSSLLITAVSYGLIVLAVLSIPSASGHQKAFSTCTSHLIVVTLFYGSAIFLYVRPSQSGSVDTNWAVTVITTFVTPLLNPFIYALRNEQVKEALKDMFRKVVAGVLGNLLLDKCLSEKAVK
How it was run: as §1

OR6T1 = test system: T7, OR6T1
T7 sequence (whole entry): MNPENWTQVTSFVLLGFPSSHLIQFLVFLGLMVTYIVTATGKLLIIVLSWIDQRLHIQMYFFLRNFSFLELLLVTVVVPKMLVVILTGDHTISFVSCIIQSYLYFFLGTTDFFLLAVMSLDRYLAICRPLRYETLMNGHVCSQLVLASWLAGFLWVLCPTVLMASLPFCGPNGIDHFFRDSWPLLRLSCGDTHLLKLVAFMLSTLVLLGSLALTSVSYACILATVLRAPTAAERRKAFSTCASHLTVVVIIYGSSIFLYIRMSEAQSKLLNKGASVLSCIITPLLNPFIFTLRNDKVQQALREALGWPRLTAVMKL
How it was run: as §1

Measured: odorant receptor agonist call;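 note: active if original authors judged signal statistically different from baseline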

C=CCSCC=C
inactive: all assays above

O=CCc1ccccc1
active: OR6P1 (Homo sapiens)
inactive: all other assays above

CC(=O)C(C)=O
inactive: all assays above

O=C1CCCCCCCCCCCCCCO1
inactive: all assays above

CC(C)CCC(=O)O
inactive: all assays above

CCC1(O)C2(C)CCC(C2)C1(C)C (stereo not drawn)
inactive: all assays above

c1ccc(Oc2ccccc2)cc1
inactive: all assays above

COC(=O)c1ccccc1O
inactive: all assays above

c1cnccn1
inactive: all assays above

CC(C)=CCCC(C)=CC=O
inactive: all assays above

CC1=CCC(C(C)(C)O)CC1 (stereo not drawn)
inactive: all assays above

CCCCCCCCCC=O
inactive: all assays above

CCCCCC(=O)O
inactive: all assays above

Quoted at random: 2 entries already listed
CCCCCC(=O)O
inactive: all assays above

CCCCCCCCCC=O
inactive: all assays above

Later entries.

CC(C)C(=O)O
inactive: all assays above

CCCCCCCOC(C)=O
inactive: all assays above

O=C1CCCCCCCCCCCC(=O)OCCO1
inactive: all assays above

CC=Cc1ccc(O)c(OC)c1
active: OR6M1 (Homo sapiens)
inactive: all other assays above

CC12CCC(CC1)C(C)(C)O2
inactive: all assays above

CC(C)CC(=O)O
inactive: all assays above

C=CC(C)(O)CCC=C(C)C (stereo not drawn)
inactive: all assays above

COc1cc(C)ccc1O
inactive: all assays above

CCCCCCCCOC(C)=O
inactive: all assays above

CC1CCC(C(C)C)C(O)C1 (stereo not drawn)
inactive: all assays above

CC(C)(C)c1ccc(CCC=O)cc1
inactive: all assays above
